Data published in publication PMC7683537.
No constants are given. Whether binding was seen depends on the method and setting. Binding seen in cells or lysates may run through a third protein. A yes stands for co-enrichment or nearness to the bait. Other partners may have been found.

Amino acid sequences for entries named in this document (tags omitted).
UniProt P28033: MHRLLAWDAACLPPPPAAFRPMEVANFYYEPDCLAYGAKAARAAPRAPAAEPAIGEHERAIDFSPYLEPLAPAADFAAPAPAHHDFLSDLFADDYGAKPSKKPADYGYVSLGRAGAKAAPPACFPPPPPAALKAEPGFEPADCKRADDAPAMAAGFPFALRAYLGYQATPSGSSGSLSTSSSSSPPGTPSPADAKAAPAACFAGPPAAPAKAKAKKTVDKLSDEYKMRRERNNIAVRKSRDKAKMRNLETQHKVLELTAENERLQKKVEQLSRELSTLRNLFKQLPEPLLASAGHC
UniProt Q9CQJ4: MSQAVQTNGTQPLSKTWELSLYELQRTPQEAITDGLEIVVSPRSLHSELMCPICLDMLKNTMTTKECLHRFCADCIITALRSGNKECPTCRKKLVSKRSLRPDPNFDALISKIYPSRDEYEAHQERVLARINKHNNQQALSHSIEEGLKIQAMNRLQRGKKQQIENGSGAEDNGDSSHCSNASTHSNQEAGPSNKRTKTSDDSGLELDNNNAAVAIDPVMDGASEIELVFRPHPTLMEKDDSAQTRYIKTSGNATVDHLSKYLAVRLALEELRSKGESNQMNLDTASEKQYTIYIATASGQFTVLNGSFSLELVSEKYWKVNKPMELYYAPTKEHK
UniProt Q91X20: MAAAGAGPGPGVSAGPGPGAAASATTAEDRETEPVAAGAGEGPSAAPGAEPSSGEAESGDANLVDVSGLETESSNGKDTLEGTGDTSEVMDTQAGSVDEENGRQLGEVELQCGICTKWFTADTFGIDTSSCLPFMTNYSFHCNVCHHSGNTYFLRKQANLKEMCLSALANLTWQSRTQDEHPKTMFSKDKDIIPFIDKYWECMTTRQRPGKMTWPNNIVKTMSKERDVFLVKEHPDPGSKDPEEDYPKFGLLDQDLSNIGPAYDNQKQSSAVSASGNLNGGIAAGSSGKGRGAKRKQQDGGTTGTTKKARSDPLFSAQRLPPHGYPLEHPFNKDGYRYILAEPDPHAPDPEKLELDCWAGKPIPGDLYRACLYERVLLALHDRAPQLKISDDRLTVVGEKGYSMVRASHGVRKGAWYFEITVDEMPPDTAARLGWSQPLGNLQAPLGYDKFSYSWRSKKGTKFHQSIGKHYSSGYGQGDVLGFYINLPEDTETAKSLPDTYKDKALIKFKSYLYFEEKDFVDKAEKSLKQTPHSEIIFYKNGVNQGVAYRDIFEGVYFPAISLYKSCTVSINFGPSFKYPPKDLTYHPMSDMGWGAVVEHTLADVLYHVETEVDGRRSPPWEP
UniProt Q9CWW7: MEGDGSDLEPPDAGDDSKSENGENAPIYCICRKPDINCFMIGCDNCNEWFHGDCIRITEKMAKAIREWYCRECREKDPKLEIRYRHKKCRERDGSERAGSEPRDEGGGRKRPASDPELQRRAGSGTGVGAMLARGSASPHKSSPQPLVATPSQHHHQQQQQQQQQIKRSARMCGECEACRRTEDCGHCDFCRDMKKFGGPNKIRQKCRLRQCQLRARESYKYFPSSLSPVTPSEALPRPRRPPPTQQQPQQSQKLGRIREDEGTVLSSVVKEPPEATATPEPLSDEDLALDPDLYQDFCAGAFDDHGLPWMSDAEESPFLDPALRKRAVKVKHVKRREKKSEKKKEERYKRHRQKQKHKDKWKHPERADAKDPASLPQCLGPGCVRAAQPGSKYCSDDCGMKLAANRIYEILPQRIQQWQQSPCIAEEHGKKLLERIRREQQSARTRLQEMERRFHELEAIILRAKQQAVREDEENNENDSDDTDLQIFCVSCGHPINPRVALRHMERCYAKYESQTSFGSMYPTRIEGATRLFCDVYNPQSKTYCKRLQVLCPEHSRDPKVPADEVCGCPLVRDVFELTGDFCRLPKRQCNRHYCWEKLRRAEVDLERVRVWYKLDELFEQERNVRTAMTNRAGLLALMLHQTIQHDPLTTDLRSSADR

target: CCAAT/enhancer binding protein β (C/EBPβ) (mouse (endogenous in BMDMs)) (UniProt P28033); assay: affinity purification with mass spectrometry; IP with anti-C/EBPβ antibody from BMDM lysate (IP lysis buffer, Pierce), protein A/G magnetic beads, SDS-PAGE, silver staining, LC-MS/MS

| binding | Substance |
| --- | --- |
| binds | RNF2 (from UniProt Q9CQJ4 1-336) |
| binds | absent, small, or homeotic 2-like protein (ASH2L) (from UniProt Q91X20 1-623) |
| binds | CXXC1 (from UniProt Q9CWW7 1-660) |
